{
  "source": "patent US20050109704A1",
  "about": "“Potable water delivery system with disinfection and residual discharge unit and method” (Pure H2O Bio-Technologies, Inc., priority 2003, published 2005)",
  "test": "Iodine Concentration, ISE measured in subject treatment systems",
  "conditions": "for Iodine Concentration, Iodine Feeder Unit Sample, Average / Iodine Concentration, Iodine Feeder Unit Sample: before carbon filter units; for Iodine Concentration, Iodine Feeder Unit Sample / Iodine Concentration, Discharge Unit Sample: 90 ml water samples No. 1-3; for Iodine Concentration, Discharge Unit Sample, Average / Iodine Concentration, Discharge Unit Sample: point of discharge",
  "key": {"[1]": {"conditions": "subject treatment system A, after 6 months of sustained use"}, "[2]": {"conditions": "subject treatment system B, after 3 years of sustained use"}},
  "note": "“And” between values parts separate entries of the source, which are not always exact repeats. Identical values can stand only once.",
  "data": [
    {"smiles": "II", "values": [
      {"measurement": "Iodine Concentration, Iodine Feeder Unit Sample, Average", "setting": "[1]", "result": 18.2, "unit": "ppm"},
      {"measurement": "Iodine Concentration, Iodine Feeder Unit Sample", "setting": "[1]", "result": "16.7 ppm and 19.8 ppm and 18.1 ppm"},
      {"measurement": "Iodine Concentration, Discharge Unit Sample, Average", "setting": "[1]", "result": 0.0, "unit": "ppm"},
      {"measurement": "Iodine Concentration, Discharge Unit Sample", "setting": "[1]", "result": 0.0, "unit": "ppm"},
      {"measurement": "Iodine Concentration, Iodine Feeder Unit Sample, Average", "setting": "[2]", "result": 15.6, "unit": "ppm"},
      {"measurement": "Iodine Concentration, Iodine Feeder Unit Sample", "setting": "[2]", "result": "15.7 ppm and 16.9 ppm and 14.1 ppm"},
      {"measurement": "Iodine Concentration, Discharge Unit Sample, Average", "setting": "[2]", "result": 0.0, "unit": "ppm"},
      {"measurement": "Iodine Concentration, Discharge Unit Sample", "setting": "[2]", "result": 0.0, "unit": "ppm"},
      {"measurement": "residual iodine in treated-discharge water", "setting": "subject treatment systems A and B after periods of sustained use", "result": "below ISE-detectable levels"}
    ]}
  ]
}
